Laboratory results reported in PMC7615087.

Tests used:
Assay in all cases: cross-linking; same BS3 cross-linking mass spectrometry sample as a6; cross-links within CCR4-NOT and between CCR4-NOT and CNOT4 when bound to stalled 80S ribosomes; both purified
[1] = molecular target: human CNOT1 (subunit of recombinant CCR4-NOT) (human) (UniProt A5YKK6)
[2] = molecular target: human CNOT2 (subunit of recombinant CCR4-NOT) (human) (UniProt Q9NZN8)
[3] = molecular target: human CNOT6 (subunit of recombinant CCR4-NOT) (human) (UniProt Q9ULM6)
[4] = molecular target: human CNOT9 (subunit of recombinant CCR4-NOT) (human) (UniProt Q92600)

- binding [1]: binds
- binding [2]: binds
- binding [3]: binds
- binding [4]: binds
Substance: human CNOT3 (subunit of recombinant CCR4-NOT) (from UniProt O75175)

These are yes or no findings as the source states them, for the method shown. Binding can be weak; no strength is given.
